Measured values published in patent publication US20240050414A1, “A COMPOSITION FOR USE IN THE TREATMENT OF INFERTILITY” (priority 2020, published 2024).

Assay: LC-MS/MS ergothionine measurement in seminal plasma and sperm cells
Set-up: species or system human
Settings: endogenous, mass spectrometric analysis

Q: For `C[N+](C)(C)[C@@H](Cc1c[nH]c(=S)[nH]1)C(=O)[O-]` [ergothionine], which “level of ergothionine in human seminal plasma” value is on record?
A: The value was 0 to 290 µM.

Q: And the “level of ergothionine in human sperm cells” value?
A: The value was 0.42 to 49 µM.
